Drawing on PubChem BioAssay AID248 (DTP/NCI, 2004), this text covers survivor count and T/C for 22 compounds.

Each structure is given as a SMILES string. The list shows only some results of the screen, not a fair sample: it gathers tests that were run many times, whatever their T/C, doses with no T/C, and many T/C values between a quarter and a half above the control. Further doses and runs are listed elsewhere. T/C is the treated group as % of the vehicle group. Some doses have a count of surviving animals in place of a T/C: the source holds a T/C of zero for them, seemingly a mark for toxic or unscored doses. Some doses without a T/C left all or most animals alive at the check, yet need not have been tolerated: the source hardly ever lists a survival T/C far under the control, and the zero likely stands for such cases as well. Survivors were counted at the toxicity check, usually on the fifth day, unless a day is given; later deaths do not show. Schedules are NCI's codes, read here as Q, the interval in days (D) or hours (H), X, the number of doses. Some schedules carry Z or #; the key to these is not given. Some molecules as drawn cover several salts, stereoisomers or complexes of the source; a dose is that of the sample tested. Some entries were tested several times; the results are listed from low to high. Additions like (4×) say how often a value occurs here. Where survival is the endpoint, the PubChem record calls one and a half times the control and up active, and a quarter to a half above the control has no call in these data; cut-offs in other NCI protocols can differ. Some T/C values are followed by the survivors on the day toxicity was checked, most often the fifth; without a count, all were alive then.

The subject of this assay is L1210 leukemia ip in BDF1 mice, survival T/C. Put plainly: NCI In Vivo Anticancer Drug Screen. Data for tumor model L1210 Leukemia (intraperitoneal) in B6D2F1 (BDF1) mice. The settings on record: T/C endpoint: mean survival time, higher T/C = longer survival.
Setting [1] is: dose: 200.0 mg/kg/injection, schedule: Q04DX003 (ip), vehicle: saline.
The mark [2] stands for this setting: dose: 400.0 mg/kg/injection, schedule: Q01DX001 (ip), vehicle: saline.
Setting [3] is: dose: 200.0 mg/kg/injection, schedule: Q04DX002 (ip), vehicle: saline.
[4] abbreviates: dose: 400.0 mg/kg/injection, schedule: Q04DX002 (ip), vehicle: saline.
[5] abbreviates: dose: 300.0 mg/kg/injection, schedule: Q01DX001 (ip), vehicle: saline.
[6] abbreviates: dose: 400.0 mg/kg/injection, schedule: Q04DX003 (ip), vehicle: saline.
The mark [7] stands for this setting: dose: 400.0 mg/kg/injection, schedule: Q01DX009 (ip), vehicle: saline.
[8] abbreviates: dose: 50.0 mg/kg/injection, schedule: Q01DX009 (ip), vehicle: saline.
The mark [9] stands for this setting: dose: 100.0 mg/kg/injection, schedule: Q01DX009 (ip), vehicle: saline.
Setting [10] is: dose: 200.0 mg/kg/injection, schedule: Q01DX009 (ip), vehicle: saline.

Turning to `O=S1(=O)C(Cl)(Cl)SC(Cl)(Cl)S(=O)(=O)C1(Cl)Cl`, the survivor count was 0 of 6 (dose: 75.0 mg/kg/injection, schedule: Q01DX009 (ip), vehicle: saline); 3 of 6 (dose: 100.0 mg/kg/injection, schedule: Q04DX003 (ip), vehicle: saline); 0 of 6 (dose: 115.0 mg/kg/injection, schedule: Q01DX009 (ip), vehicle: saline); 0 of 6 (dose: 170.0 mg/kg/injection, schedule: Q01DX009 (ip), vehicle: saline); 0 of 6 under setting [1]; 0 of 6 under setting [2].

`O=C(C[n+]1ccccc1)c1ccccc1`: the survivor count reads like this: under setting [3], 1 of 3; under setting [4], 0 of 3.

As for `CC(C)=NOC(C)C(=O)O` (stereo not given), the survivor count runs as follows: under setting [5], 2 of 6; under setting [6], 3 of 6.

Take `NC(CCl)=NC1CN2CCC1CC2` (stereo not given): the survivor count runs as follows: (dose: 100.0 mg/kg/injection, schedule: Q04DX002 (ip), vehicle: saline) 1 of 3; under setting [3], 1 of 3; under setting [4], 1 of 3.

With `O=C(CI)c1ccc[nH]1`, the survivor count under setting [2] is given as 0 of 4.

Take `Nc1ncnc2c1ncn2C1CCCCC1`: the survivor count (dose: 136.0 mg/kg/injection, schedule: Q01DX Z (ip), vehicle: carboxymethylcellulose (CMC)) is 6 of 6 and the survivor count (dose: 272.0 mg/kg/injection, schedule: Q01DX Z (oral), vehicle: carboxymethylcellulose (CMC)) is listed as 3 of 6.

With `Cc1ccc2c(C)nc(N=C(N)N)nc2c1`, the survivor count runs as follows: (dose: 150.0 mg/kg/injection, schedule: Q01DX001 (ip), vehicle: saline) 3 of 6; under setting [5], 0 of 6.

For `C=C1CC(CCCC2CC(=C)C(=O)O2)OC1=O` (stereo not given), the survivor count under setting [4] is 1 of 3.

On to `CC1=C(N)C(=O)C2=C(C1=O)N1CC3C(N3C)C1(O)C2COC(N)=O` (stereo not given), for which, for the setting “dose: 35.0 mg/kg/injection, schedule: Q01DX001 (ip), vehicle: acetone”, the T/C is 135 % of control.

Take `CS(=O)(=O)c1nc2[nH]c(=O)[nH]c(=O)c2cc1C#N`: the survivor count is, setting by setting: (dose: 200.0 mg/kg/injection, schedule: Q01DX001 (ip), vehicle: Klucel (hydroxypropylcellulose) (HPC)) 1 of 6; (dose: 400.0 mg/kg/injection, schedule: Q01DX001 (ip), vehicle: Klucel (hydroxypropylcellulose) (HPC)) 0 of 6.

Consider `CSc1nnc(-c2ccncc2)s1`, for which the survivor count under setting [6] is reported as 0 of 6.

For `CC1CCN(c2ccc([N+](=O)[O-])cc2[N+](=O)[O-])CC1`, where the note is “dose: 400.0 mg/kg/injection, schedule: Q01DX009 (ip), vehicle: Klucel (hydroxypropylcellulose) (HPC)”, the survivor count is recorded as 5 of 6.

For the compound `OC(C#Cc1ccccc1)c1ccccc1` (stereo not given), the survivor count (dose: 100.0 mg/kg/injection, schedule: Q01DX009 (ip), vehicle: saline with Tween-80) is on record as 3 of 6 and the survivor count (dose: 400.0 mg/kg/injection, schedule: Q04DX003 (ip), vehicle: saline with Tween-80) is reported as 2 of 6.

In the case of `O=C(Nc1cc(NC(=O)Nc2cccc(C3=NCCN3)c2)cc(C(=O)O)c1)Nc1cccc(C2=NCCN2)c1`, the survivor count (dose: 480.0 mg/kg/injection, schedule: Q01DX Z (ip), vehicle: carboxymethylcellulose (CMC)) was 4 of 6.

In the case of `CCNCCC#N`, the survivor count under setting [7] is 5 of 6.

As for `CCOC(=O)c1ccc(NC(=O)N(C2CCCCC2)C2CCCCC2)cc1`, where the note is “dose: 100.0 mg/kg/injection, schedule: Q04DX003 (ip), vehicle: saline with Tween-80”, the survivor count is 6 of 6.

As for `COc1cc(NS(C)(=O)=O)ccc1Nc1c2ccc([N+](=O)[O-])cc2nc2c(C)c(C)ccc12`, the T/C runs as follows: (dose: 0.72 mg/kg/injection, schedule: Q01DX009 (ip), vehicle: saline) 125 % of control; (dose: 6.25 mg/kg/injection, schedule: Q01DX009 (ip), vehicle: saline) 148 % of control; (dose: 50.0 mg/kg/injection, schedule: Q01DX001 (ip), vehicle: water) 127 % of control; (dose: 50.0 mg/kg/injection, schedule: Q01DX009 (ip), vehicle: water) 129 % of control; (dose: 100.0 mg/kg/injection, schedule: Q01DX001 (ip), vehicle: water) 128 % of control; (dose: 100.0 mg/kg/injection, schedule: Q01DX009 (ip), vehicle: water) 135 % of control. The T/C reads like this: (dose: 200.0 mg/kg/injection, schedule: Q01DX001 (ip), vehicle: water) 133 % of control; (dose: 200.0 mg/kg/injection, schedule: Q01DX009 (ip), vehicle: water) 141 % of control; (dose: 400.0 mg/kg/injection, schedule: Q01DX001 (ip), vehicle: water) 135 % of control. Besides, the survivor count reads like this: under setting [8], 6 of 6; under setting [9], 5 of 6; under setting [10], 5 of 6; under setting [7], 0 of 6.

With `[Br][Hg][Br].c1ccc(N=P(c2ccccc2)(c2ccccc2)c2ccccc2)cc1`, the survivor count by setting is: (dose: 75.0 mg/kg/injection, schedule: Q01DX001 (ip), vehicle: other) 4 of 6; (dose: 150.0 mg/kg/injection, schedule: Q01DX001 (ip), vehicle: other) 1 of 6; (dose: 300.0 mg/kg/injection, schedule: Q01DX001 (ip), vehicle: other) 0 of 6.

For the compound `CN(C)C(C)(C)CNc1ccc(C(=O)O)cc1`, the survivor count under setting [8] is reported as 6 of 6; the survivor count under setting [9] was 5 of 6 and 6 of 6; the survivor count under setting [10] is given as 1 of 6; the survivor count under setting [1] is listed as 2 of 6; the survivor count under setting [6] was 0 of 6 (2×).

As for `CC1CC(=O)NN1C(O)c1ccc2c(c1)OCO2` (stereo not given), the survivor count (dose: 400.0 mg/kg/injection, schedule: Q04DX002 (ip), vehicle: Klucel (hydroxypropylcellulose) (HPC)) is 3 of 3.

`C[C@@H]1CN(C(=O)CCOS(C)(=O)=O)[C@@H](C)CN1C(=O)CCOS(C)(=O)=O`: the T/C is, setting by setting: (dose: 8.4 mg/kg/injection, schedule: Q01DX Z (ip), vehicle: carboxymethylcellulose (CMC)) 132 % of control; (dose: 12.6 mg/kg/injection, schedule: Q01DX Z (ip), vehicle: carboxymethylcellulose (CMC)) 125 % of control; (dose: 19.0 mg/kg/injection, schedule: Q01DX Z (ip), vehicle: carboxymethylcellulose (CMC)) 135 % of control; (dose: 29.0 mg/kg/injection, schedule: Q01DX Z (ip), vehicle: carboxymethylcellulose (CMC)) 127 and 144 % of control; (dose: 29.5 mg/kg/injection, schedule: Q01DX Z (ip), vehicle: carboxymethylcellulose (CMC)) 125 % of control; (dose: 60.3 mg/kg/injection, schedule: Q01DX Z (ip), vehicle: carboxymethylcellulose (CMC)) 132 and 147 % of control. The T/C is 139 % of control (dose: 88.0 mg/kg/injection, schedule: Q01DX Z (ip), vehicle: carboxymethylcellulose (CMC)); 121, 148 [4 of 6 alive], 159, 168 % of control (dose: 90.0 mg/kg/injection, schedule: Q01DX Z (ip), vehicle: carboxymethylcellulose (CMC)); 103, 112, 119, 165, 191, 201 % of control (dose: 135.0 mg/kg/injection, schedule: Q01DX Z (ip), vehicle: carboxymethylcellulose (CMC)); 137 % of control (dose: 200.0 mg/kg/injection, schedule: Q01DX Z (ip), vehicle: carboxymethylcellulose (CMC)). Also, the survivor count was 5 of 6 (dose: 302.0 mg/kg/injection, schedule: Q01DX Z (ip), vehicle: carboxymethylcellulose (CMC)); 6 of 6 (dose: 450.0 mg/kg/injection, schedule: Q01DX Z (ip), vehicle: carboxymethylcellulose (CMC)); 6 of 6 (dose: 675.0 mg/kg/injection, schedule: Q01DX Z (ip), vehicle: carboxymethylcellulose (CMC)).

`CCCCCCCC/C=C/CCCCCCCCNC(=O)NCCCl`: the survivor count (dose: 400.0 mg/kg/injection, schedule: Q01DX009 (ip), vehicle: saline with Tween-80) is recorded as 6 of 6.
